Assay results taken from PMC5680916.
Results are given in words; binding and its absence hold for the method and conditions named. In cells and extracts the contact can be indirect. Some results given as binding are weak or reduced against the parent protein; the word gives no strength.

Sequences of proteins named here, by UniProt entry; tags and fusion partners are left off.
UniProt P01106: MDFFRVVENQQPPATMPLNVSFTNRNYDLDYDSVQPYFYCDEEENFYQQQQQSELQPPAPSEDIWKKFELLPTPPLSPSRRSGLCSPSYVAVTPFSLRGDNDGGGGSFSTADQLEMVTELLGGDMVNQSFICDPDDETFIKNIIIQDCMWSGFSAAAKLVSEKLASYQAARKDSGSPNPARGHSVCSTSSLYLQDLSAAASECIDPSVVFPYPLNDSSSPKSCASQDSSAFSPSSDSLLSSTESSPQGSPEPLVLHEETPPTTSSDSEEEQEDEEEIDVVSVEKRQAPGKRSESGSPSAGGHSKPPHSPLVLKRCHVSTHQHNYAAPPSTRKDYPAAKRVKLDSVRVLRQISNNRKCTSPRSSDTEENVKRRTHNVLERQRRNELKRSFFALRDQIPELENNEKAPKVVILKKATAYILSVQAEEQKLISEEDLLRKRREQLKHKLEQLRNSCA

Molecular target: Calreticulin (human (endogenous in Capan-2 and AsPC-1)) (UniProt P27797)
Experiment: co-IP; whole lysates of Capan-2 and AsPC-1 cells (20 mM Tris/HCl pH 7.4, 1.0% NP-40, 1 mM EDTA, 150 mM NaCl); CRT, c-Myc or IgG antibodies on magnetic beads, overnight at 4 °C; Western blot with CRT, c-Myc, Integrinβ1, Fibronectin and GAPDH antibodies

Row | Substance | binding
1 | Fibronectin (from UniProt P02751 32-2477) | binds
2 | Integrinβ1 (from UniProt P05556 21-798) | binds
3 | c-Myc (from UniProt P01106 1-454) | binds
